Results are given in words; binding and its absence hold for the method and conditions named. In cells and extracts the contact can be indirect. Binding calls can cover weak binding; strength is not graded here. Tags and fused reporters may be left off the sequences shown.
Target: tagged CEP120 with C2B deletion (human) (UniProt Q8N960)
Assay: co-IP; overexpressed, tagged versions of centrobin and CEP120, from cell extracts, at 4°C; which protein was precipitated is not told

Protein sequences, listed by entry. Tags and fused reporters are not part of them. Lines headed by an entry give the natural chain unless they say otherwise; changes in a name come on top.
UniProt Q8N960: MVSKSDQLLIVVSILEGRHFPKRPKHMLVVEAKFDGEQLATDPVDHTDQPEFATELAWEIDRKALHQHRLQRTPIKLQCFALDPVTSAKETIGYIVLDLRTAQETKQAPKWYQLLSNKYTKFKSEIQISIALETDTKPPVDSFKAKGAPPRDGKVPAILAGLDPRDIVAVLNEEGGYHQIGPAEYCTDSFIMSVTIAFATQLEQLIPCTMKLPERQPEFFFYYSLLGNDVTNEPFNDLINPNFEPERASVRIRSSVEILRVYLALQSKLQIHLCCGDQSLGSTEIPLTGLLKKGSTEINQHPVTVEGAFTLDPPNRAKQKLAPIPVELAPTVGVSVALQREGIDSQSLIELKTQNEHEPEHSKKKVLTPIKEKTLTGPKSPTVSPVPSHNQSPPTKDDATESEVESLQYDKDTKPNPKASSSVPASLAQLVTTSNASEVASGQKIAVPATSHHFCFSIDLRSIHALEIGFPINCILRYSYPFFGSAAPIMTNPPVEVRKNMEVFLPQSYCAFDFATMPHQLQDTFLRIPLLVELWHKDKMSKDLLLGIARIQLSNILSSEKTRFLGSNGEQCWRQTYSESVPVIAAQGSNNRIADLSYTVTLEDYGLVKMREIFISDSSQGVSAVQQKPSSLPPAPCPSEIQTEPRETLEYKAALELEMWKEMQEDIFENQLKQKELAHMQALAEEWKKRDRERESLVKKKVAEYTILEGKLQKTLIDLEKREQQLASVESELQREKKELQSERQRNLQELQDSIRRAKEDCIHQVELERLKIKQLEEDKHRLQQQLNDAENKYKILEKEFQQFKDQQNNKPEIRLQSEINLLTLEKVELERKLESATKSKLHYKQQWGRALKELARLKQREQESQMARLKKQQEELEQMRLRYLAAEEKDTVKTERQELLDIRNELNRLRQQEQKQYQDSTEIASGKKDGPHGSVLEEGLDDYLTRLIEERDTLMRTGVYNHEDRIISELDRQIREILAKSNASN

binding: binds
B1: tagged centrobin (overexpressed, for co-immunoprecipitation) (protein, UniProt Q8N137 1-903)
chain: MATSADSPSSPLGAEDLLSDSSEPPGLNQVSSEVTSQLYASLRLSRQAEATARAQLYLPSTSPPHEGLDGFAQELSRSLSVGLEKNLKKKDGSKHIFEMESVRGQLQTMLQTSRDTAYRDPLIPGAGSERREEDSFDSDSTATLLNTRPLQDLSPSSSAQALEELFPRYTSLRPGPPLNPPDFQGLRDALDSEHTRRKHCERHIQSLQTRVLELQQQLAVAVAADRKKDTMIEQLDKTLARVVEGWNRHEAERTEVLRGLQEEHQAAELTRSKQQETVTRLEQSLSEAMEALNREQESARLQQRERETLEEERQALTLRLEAEQQRCCVLQEERDAARAGQLSEHRELETLRAALEEERQTWAQQEHQLKEHYQALQEESQAQLEREKEKSQREAQAAWETQHQLALVQSEVRRLEGELDTARRERDALQLEMSLVQARYESQRIQLESELAVQLEQRVTERLAQAQESSLRQAASLREHHRKQLQDLSGQHQQELASQLAQFKVEMAEREERQQQVAEDYELRLAREQARVCELQSGNQQLEEQRVELVERLQAMLQAHWDEANQLLSTTLPPPNPPAPPAGPSSPGPQEPEKEERRVWTMPPMAVALKPVLQQSREARDELPGAPPVLCSSSSDLSLLLGPSFQSQHSFQPLEPKPDLTSSTAGAFSALGAFHPDHRAERPFPEEDPGPDGEGLLKQGLPPAQLEGLKNFLHQLLETVPQNNENPSVDLLPPKSGPLTVPSWEEAPQVPRIPPPVHKTKVPLAMASSLFRVPEPPSSHSQGSGPSSGSPERGGDGLTFPRQLMEVSQLLRLYQARGWGALPAEDLLLYLKRLEHSGTDGRGDNVPRRNTDSRLGEIPRKEIPSQAVPRRLATAPKTEKPPARKKSGHPAPSSMRSRGGVWR

— PMC5990496
